The values that follow come from PMC5996148.

Where “and” joins values, the source holds several entries; their conditions need not be identical. Equal values may be shown once. The list shows a part of the results. For some assays here: The source does not settle which construct or isoform was used.

Test systems include POLE3 (human); POLR2F (human); POLR2H (human); POLR2I (human); PPAP2B (human); PPARG (human); PPBP (human); PPCDC (human); PPM1A (human); PPM1H (human); PPM1M (human); PPP1R1C (human); PPP1R2 (human); PPP1R3C (human); PPP2R1B (human); PPP2R2C (human); PPP2R4 (human); PPP2R5B (human); PPP3R2 (human).
Assay in all cases: protein microarray (ProtoArray v5.0), streptavidin-Alexa Fluor 647
What all share (conditions): 3'-biotin; 20 mM Tris (pH 7.5), 5 mM MgCl2, 100 mM KCl, 0.1% Tween-20, A/T-rich and random oligonucleotide blockers; temperature not stated; high values mean tight binding

A further assay concerns the target T1, PPT1 (UniProt P50897).
T1 sequence: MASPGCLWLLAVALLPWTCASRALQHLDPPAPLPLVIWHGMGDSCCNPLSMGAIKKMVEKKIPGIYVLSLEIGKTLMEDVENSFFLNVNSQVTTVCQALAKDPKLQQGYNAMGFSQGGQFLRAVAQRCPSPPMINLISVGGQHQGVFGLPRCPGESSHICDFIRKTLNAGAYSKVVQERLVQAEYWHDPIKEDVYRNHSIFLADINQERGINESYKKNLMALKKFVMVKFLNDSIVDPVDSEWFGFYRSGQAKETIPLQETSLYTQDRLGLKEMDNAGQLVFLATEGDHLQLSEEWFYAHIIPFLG

In the case of “GGGAGGCTGAGGCAGG [G4-1 biotinylated (PQS2)]”, the binding signal in the assay on POLE3 (human) was -0.352 z-score; in the assay with POLR2F (human), -0.284 z-score; in the assay on POLR2H (human), -0.308 z-score; in the assay on POLR2I (human) it was -0.316 z-score; in the assay on PPAP2B (human), -0.329 z-score; in the assay on PPARG (human) it was -0.3 z-score. Besides, the binding signal in the assay on PPBP (human) is -0.261 z-score; in the assay on PPCDC (human), -0.326 z-score; in the assay on PPM1A (human), -0.33 z-score; with PPM1H (human), -0.288 z-score; with PPM1M (human), -0.302 z-score; with PPP1R1C (human), -0.29 z-score. Also, the binding signal in the assay with PPP1R2 (human) was -0.339 z-score; in the assay with PPP1R3C (human) it was -0.314 z-score; in the assay with PPP2R1B (human), -0.32 z-score; in the assay with PPP2R2C (human), -0.348 z-score; in the assay with PPP2R4 (human), -0.324 z-score and -0.274 z-score; with PPP2R5B (human), -0.34 z-score. The binding signal in the assay on PPP3R2 (human) was -0.338 z-score; with PPT1, -0.33 z-score.
